These results are taken from publication PMC9643420.

Protein sequences, listed by entry. Tags and fused reporters are not part of them. Lines headed by an entry give the natural chain unless they say otherwise; changes in a name come on top.
UniProt Q00839: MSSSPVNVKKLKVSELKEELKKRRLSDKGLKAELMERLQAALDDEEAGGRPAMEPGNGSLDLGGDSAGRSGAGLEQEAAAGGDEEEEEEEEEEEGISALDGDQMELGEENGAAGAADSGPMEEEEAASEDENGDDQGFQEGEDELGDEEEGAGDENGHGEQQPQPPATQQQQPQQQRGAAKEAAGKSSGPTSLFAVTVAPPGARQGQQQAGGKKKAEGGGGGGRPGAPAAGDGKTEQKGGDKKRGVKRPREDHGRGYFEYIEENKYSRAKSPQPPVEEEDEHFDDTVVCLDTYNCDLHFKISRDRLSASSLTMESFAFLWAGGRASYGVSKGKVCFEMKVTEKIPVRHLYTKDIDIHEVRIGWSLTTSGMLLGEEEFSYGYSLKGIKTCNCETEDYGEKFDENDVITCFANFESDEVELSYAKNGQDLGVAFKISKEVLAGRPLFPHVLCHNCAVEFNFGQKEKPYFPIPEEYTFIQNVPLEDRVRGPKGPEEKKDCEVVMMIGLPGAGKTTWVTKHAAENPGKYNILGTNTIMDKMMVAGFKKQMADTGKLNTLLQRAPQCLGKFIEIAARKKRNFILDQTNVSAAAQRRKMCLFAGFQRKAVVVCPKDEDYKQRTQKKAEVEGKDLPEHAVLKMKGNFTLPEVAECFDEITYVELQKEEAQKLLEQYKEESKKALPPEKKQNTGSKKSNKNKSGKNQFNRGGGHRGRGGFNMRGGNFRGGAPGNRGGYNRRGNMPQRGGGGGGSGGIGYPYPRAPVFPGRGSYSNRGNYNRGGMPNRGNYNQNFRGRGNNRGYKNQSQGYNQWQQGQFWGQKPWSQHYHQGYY
UniProt P17844: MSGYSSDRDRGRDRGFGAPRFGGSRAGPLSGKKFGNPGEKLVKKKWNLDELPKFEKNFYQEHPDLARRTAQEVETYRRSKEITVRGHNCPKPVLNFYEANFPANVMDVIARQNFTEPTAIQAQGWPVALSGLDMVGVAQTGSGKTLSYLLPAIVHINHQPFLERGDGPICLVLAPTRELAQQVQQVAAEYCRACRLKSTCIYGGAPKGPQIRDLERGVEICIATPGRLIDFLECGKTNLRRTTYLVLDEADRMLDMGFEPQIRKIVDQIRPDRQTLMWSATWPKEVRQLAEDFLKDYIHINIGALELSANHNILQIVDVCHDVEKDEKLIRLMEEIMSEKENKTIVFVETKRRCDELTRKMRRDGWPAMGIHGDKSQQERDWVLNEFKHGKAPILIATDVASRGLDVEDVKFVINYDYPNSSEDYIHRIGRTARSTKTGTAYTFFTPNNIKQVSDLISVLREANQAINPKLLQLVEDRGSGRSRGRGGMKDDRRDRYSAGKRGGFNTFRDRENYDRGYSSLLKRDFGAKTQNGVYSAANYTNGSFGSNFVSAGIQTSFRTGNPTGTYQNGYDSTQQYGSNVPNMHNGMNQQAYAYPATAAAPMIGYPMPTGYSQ

For test [1], the target named is Flag-tagged HNRNPU mutant with the SAP domain deleted (UniProt Q00839). Put plainly: co-IP; tagged protein (HNRNPU-Flag, its Flag-tagged mutants, or DDX5-Myc) in HEK293T against the endogenous partner; NP40 buffer, antibody overnight at 4 °C, protein G magnetic beads, immunoblotting. (A western blot detects proteins with antibodies after separation by electrophoresis.)

The target of test [2] is Flag-tagged HNRNPU mutant with the RGG domain mutated into a non-functional SGG domain (UniProt Q00839). The description is as above.

No constants are given. Whether binding was seen depends on the method and setting. In cells and extracts the contact can be indirect. Binding can be weak; no strength is given.

Consider “endogenous DDX5 (DEAD box helicase 5) (from UniProt P17844 1-614)”, for which the binding result in test [1] and in test [2] was “binds” in each case.
